Results published in paper PMC9587022 (2022).
No constants are given. Whether binding was seen depends on the method and setting. In cells and extracts the contact can be indirect. Here binding means that the protein was enriched with, or labelled near, the bait; the list need not be complete.

Chains of the proteins cited; added tags and fusions are not shown.
UniProt P16788: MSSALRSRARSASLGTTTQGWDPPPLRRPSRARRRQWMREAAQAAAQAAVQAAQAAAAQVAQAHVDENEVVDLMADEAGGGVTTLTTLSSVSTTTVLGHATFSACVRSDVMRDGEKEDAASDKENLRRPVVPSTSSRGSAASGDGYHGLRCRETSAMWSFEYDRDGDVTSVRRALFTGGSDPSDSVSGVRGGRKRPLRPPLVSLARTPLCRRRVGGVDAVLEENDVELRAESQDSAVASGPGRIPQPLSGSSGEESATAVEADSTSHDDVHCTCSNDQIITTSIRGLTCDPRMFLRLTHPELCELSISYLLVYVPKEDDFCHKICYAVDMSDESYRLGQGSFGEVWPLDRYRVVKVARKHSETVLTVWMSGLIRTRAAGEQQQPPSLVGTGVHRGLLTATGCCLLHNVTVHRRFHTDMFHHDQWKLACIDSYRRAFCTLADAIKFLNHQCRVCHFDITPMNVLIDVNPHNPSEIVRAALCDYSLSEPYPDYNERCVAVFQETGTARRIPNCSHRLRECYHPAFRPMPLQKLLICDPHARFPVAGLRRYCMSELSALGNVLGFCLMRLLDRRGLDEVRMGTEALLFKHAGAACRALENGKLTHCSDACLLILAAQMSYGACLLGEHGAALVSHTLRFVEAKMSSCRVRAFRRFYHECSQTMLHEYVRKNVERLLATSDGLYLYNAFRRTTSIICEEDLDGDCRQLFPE

B1: Heterogeneous nuclear ribonucleoprotein H3 (protein, UniProt P31942 1-346)
chain: MDWVMKHNGPNDASDGTVRLRGLPFGCSKEEIVQFFQGLEIVPNGITLTMDYQGRSTGEAFVQFASKEIAENALGKHKERIGHRYIEIFRSSRSEIKGFYDPPRRLLGQRPGPYDRPIGGRGGYYGAGRGSMYDRMRRGGDGYDGGYGGFDDYGGYNNYGYGNDGFDDRMRDGRGMGGHGYGGAGDASSGFHGGHFVHMRGLPFRATENDIANFFSPLNPIRVHIDIGADGRATGEADVEFVTHEDAVAAMSKDKNNMQHRYIELFLNSTPGGGSGMGGSGMGGYGRDGMDNQGGYGSVGRMGMGNNYSGGYGTPDGLGGYGRGGGGSGGYYGQGGMSGGGWRGMY
B2: DnaJ homolog subfamily C member 7 (protein, UniProt Q99615 1-494)
chain: MAAAAECDVVMAATEPELLDDQEAKREAETFKEQGNAYYAKKDYNEAYNYYTKAIDMCPKNASYYGNRAATLMMLGRFREALGDAQQSVRLDDSFVRGHLREGKCHLSLGNAMAACRSFQRALELDHKNAQAQQEFKNANAVMEYEKIAETDFEKRDFRKVVFCMDRALEFAPACHRFKILKAECLAMLGRYPEAQSVASDILRMDSTNADALYVRGLCLYYEDCIEKAVQFFVQALRMAPDHEKACIACRNAKALKAKKEDGNKAFKEGNYKLAYELYTEALGIDPNNIKTNAKLYCNRGTVNSKLRKLDDAIEDCTNAVKLDDTYIKAYLRRAQCYMDTEQYEEAVRDYEKVYQTEKTKEHKQLLKNAQLELKKSKRKDYYKILGVDKNASEDEIKKAYRKRALMHHPDRHSGASAEVQKEEEKKFKEVGEAFTILSDPKKKTRYDSGQDLDEEGMNMGDFDPNNIFKAFFGGPGGFSFEASGPGNFFFQFG
B3: 14-3-3 θ, endogenous (protein, UniProt P27348 1-245)
chain: MEKTELIQKAKLAEQAERYDDMATCMKAVTEQGAELSNEERNLLSVAYKNVVGGRRSAWRVISSIEQKTDTSDKKLQLIKDYREKVESELRSICTTVLELLDKYLIANATNPESKVFYLKMKGDYFRYLAEVACGDDRKQTIDNSQGAYQEAFDISKKEMQPTHPIRLGLALNFSVFYYEILNNPELACTLAKTAFDEAIAELDTLNEDSYKDSTLIMQLLRDNLTLWTSDSAGEECDAAEGAEN
B4: 14-3-3 protein eta, endogenous (protein, UniProt Q04917 1-246)
chain: MGDREQLLQRARLAEQAERYDDMASAMKAVTELNEPLSNEDRNLLSVAYKNVVGARRSSWRVISSIEQKTMADGNEKKLEKVKAYREKIEKELETVCNDVLSLLDKFLIKNCNDFQYESKVFYLKMKGDYYRYLAEVASGEKKNSVVEASEAAYKEAFEISKEQMQPTHPIRLGLALNFSVFYYEIQNAPEQACLLAKQAFDDAIAELDTLNEDSYKDSTLIMQLLRDNLTLWTSDQQDEEAGEGN

What follows are binders tested against Carboxy-terminally Halo-tagged UL97 (pFC14a-HA-UL97 WT) (human cytomegalovirus (HCMV)) (UniProt P16788) (assay: affinity purification with mass spectrometry; C-terminally Halo-tagged UL97 or Halo alone transiently expressed in HEK-293T; lysate on HaloLink beads, 1 h bead incubation; eluted with TEV protease; LC-MS/MS (Orbitrap Elite); two biological replicates).

Row | Binder | binding
1 | B1 | binds
2 | B2 | binds
3 | B3 | binds
4 | B4 | binds
